Earlier results on one molecule are cited in patent US20240358639A1, “NANOPARTICLES FOR CANCER TREATMENT” (Immix Biopharma, Inc., priority 2021, published 2024).

Turning to `COc1cc(/C=C/C(=O)CC(=O)/C=C/c2ccc(O)c(OC)c2)ccc1O` [Curcumin, (E,E)-1,7-bis (4 hydroxy-3-methoxyphenyl)-1,6-heptadiene-3,5,-dione], the “solubility in organic solvents and alkalis” value (ethanol, alkalis, ketones, acetic acid and chloroform) is on record as “soluble”. Also, the solubility in water result (water) is “insoluble”.
